Results as given in US20200376029A1.
No constants are given. Whether binding was seen depends on the method and setting. Some entries that bind do so weakly or less than the wild type.

Experiments:
[1] = target: T1, mouse glypican 1 (mGPC1) (mouse) (UniProt Q9QZF2); experiment: immunostaining of MC38-mGPC1 cells and mouse tissues
T1 sequence (looked up): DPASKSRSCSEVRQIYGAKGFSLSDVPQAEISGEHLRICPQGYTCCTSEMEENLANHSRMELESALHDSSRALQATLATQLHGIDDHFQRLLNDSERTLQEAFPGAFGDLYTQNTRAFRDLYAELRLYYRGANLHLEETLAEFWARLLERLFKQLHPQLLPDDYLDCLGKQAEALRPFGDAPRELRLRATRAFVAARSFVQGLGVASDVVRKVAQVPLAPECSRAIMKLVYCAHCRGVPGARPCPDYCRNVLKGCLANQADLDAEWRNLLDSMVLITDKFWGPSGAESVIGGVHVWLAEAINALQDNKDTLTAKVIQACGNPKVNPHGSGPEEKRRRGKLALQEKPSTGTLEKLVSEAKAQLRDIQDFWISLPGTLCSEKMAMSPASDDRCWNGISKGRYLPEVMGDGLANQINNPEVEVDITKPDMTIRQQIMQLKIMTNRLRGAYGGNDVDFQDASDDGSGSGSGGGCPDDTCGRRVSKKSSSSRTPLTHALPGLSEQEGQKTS

[2] = target: T2, human glypican 1 (hGPC1) (human) (UniProt P35052); experiment: immunostaining of frozen human tissue sections
T2 sequence (looked up): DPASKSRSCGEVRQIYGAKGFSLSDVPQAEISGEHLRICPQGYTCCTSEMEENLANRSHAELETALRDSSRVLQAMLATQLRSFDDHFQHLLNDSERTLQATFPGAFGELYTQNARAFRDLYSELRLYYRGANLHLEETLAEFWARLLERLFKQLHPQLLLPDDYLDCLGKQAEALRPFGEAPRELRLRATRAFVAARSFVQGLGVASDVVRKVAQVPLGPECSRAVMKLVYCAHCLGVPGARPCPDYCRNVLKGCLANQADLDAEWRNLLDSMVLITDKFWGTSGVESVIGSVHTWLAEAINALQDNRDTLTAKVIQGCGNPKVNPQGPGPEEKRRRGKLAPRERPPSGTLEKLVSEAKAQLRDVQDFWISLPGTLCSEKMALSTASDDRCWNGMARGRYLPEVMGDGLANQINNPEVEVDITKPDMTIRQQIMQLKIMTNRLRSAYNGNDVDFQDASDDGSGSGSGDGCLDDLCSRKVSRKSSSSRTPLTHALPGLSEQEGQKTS

[3] = target: T1, mouse glypican 1 (mGPC1) (mouse); experiment: flow cytometry on MC38-mGPC1 and MCA205-mGPC1 cells, with isotype control
[4] = target: T2, human glypican 1 (hGPC1) (human); experiment: flow cytometry on LK2-hGPC1 cells against LK2-mock, with isotype control

Measured: binding

B1: anti-GPC1 monoclonal antibody (clone 1-12) (antibody, V domains shown)
VH: AVTLDESGGGLQTPGRALSLVCKASGFTFSRYAMYWVRQAPGKGLEFVAGIGNTGRYTGYGSAVKGRATISRDSGQSTVRLQLNNLRAEDTGNYYCAKSVSPYCCDAADIDAWGHGTEVIVSS
VL: ASTQPSSVSANPGETVKITCSGGSSGYAYGWYQQKSPGSAPVTLLYSNNNRPSDIPSRFSGSKSGSTATLTITGVQAEDEAVYFCGSVDSSSYAGIFGAGTTLTVL
binds: all assays above
